# Reference: the supplement of paper PMC8728848
# This is one part of the list.
# B1: SfaEH (Escherichia coli), Q1RDG5 (protein)
# chain: LLCRNNQTGQVFNSGDTSFRVNVSPVVQYDKSISVLDLSQLVSCQNEDSTGQNYDYLKILKGSGFSPALDTKTYGRLDFTSRPTGYARQLPLQFDLQVTEAFYQYGVWKPFPAKLYLYPAPGVFGKVINNGDLLATLYVNKFSTKGQEAGERNFTWRFYATNDVYIQTGTCRVSSNNVKVDLPSYPGGPVTVPLTVRCDQTQSVSYTLSGPVTGSGNTVFANTAASGSGGVGIQLSDNVGPVPAGQPRSLGQVGSSPVSLGLKASYALTGQASPTPGAVQSVINVTFSYN
# How the values were obtained:
# Test in all cases: glycan array binding signal (z-score within array); higher = stronger binding
# Conditions in all cases: glycan notation: IUPAC condensed, linker removed
# [1] = molecular target: Neu5Ac(a2-3)Gal(b1-4)GlcNAc(b1-6)GalNAc
# How it was run: (§1)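 Columns mapping to the same glycan were averaged after glycan names were converted to IUPAC-condensed notation. The data come from 3228 arrays in the Consortium for Functional Glycomics database, limited to those with an available protein sequence. Binding is reported as a within-array Z-score averaged across arrays of one protein sequence and across linkers.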
# [2] = molecular target: Neu5Ac(a2-3)Gal(b1-4)GlcNAc(b1-6)[Gal(b1-3)]GalNAc
# How it was run: as §1
# [3] = molecular target: Neu5Ac(a2-3)Gal(b1-4)GlcNAc(b1-6)[Neu5Ac(a2-3)Gal(b1-3)]GalNAc
# How it was run: as §1
# [4] = molecular target: Neu5Ac(a2-3)Gal(b1-4)GlcNAc6S
# How it was run: as §1
# [5] = molecular target: Neu5Ac(a2-3)Gal(b1-4)[Fuc(a1-3)]GlcNAc
# How it was run: as §1
# [6] = molecular target: Neu5Ac(a2-3)Gal(b1-4)[Fuc(a1-3)]GlcNAc(b1-2)Man
# How it was run: as §1
# [7] = molecular target: Neu5Ac(a2-3)Gal(b1-4)[Fuc(a1-3)]GlcNAc(b1-3)Gal
# How it was run: as §1
# [8] = molecular target: Neu5Ac(a2-3)Gal(b1-4)[Fuc(a1-3)]GlcNAc(b1-3)Gal(b1-4)GlcNAc
# How it was run: as §1
# [9] = molecular target: Neu5Ac(a2-3)Gal(b1-4)[Fuc(a1-3)]GlcNAc(b1-3)Gal(b1-4)[Fuc(a1-3)]GlcNAc(b1-3)Gal(b1-4)[Fuc(a1-3)]GlcNAc
# How it was run: as §1
# [10] = molecular target: Neu5Ac(a2-3)Gal(b1-4)[Fuc(a1-3)]GlcNAc(b1-3)GalNAc
# How it was run: as §1
# [11] = molecular target: Neu5Ac(a2-3)Gal(b1-4)[Fuc(a1-3)]GlcNAc(b1-6)[Gal(b1-3)]GalNAc
# How it was run: as §1
# [12] = molecular target: Neu5Ac(a2-3)Gal(b1-4)[Fuc(a1-3)]GlcNAc(b1-6)[Neu5Ac(a2-3)Gal(b1-3)]GalNAc
# How it was run: as §1
# [13] = molecular target: Neu5Ac(a2-3)Gal(b1-4)[Fuc(a1-3)]GlcNAc6S
# How it was run: as §1
# [14] = molecular target: Neu5Ac(a2-3)Gal6S(b1-4)GlcNAc
# How it was run: as §1
# [15] = molecular target: Neu5Ac(a2-3)Gal6S(b1-4)[Fuc(a1-3)]GlcNAc
# How it was run: as §1
# Neu5Ac(a2-3)GalNAc = molecular target: Neu5Ac(a2-3)GalNAc
# How it was run: as §1
# [16] = molecular target: Neu5Ac(a2-3)GalNAc(b1-4)GlcNAc
# How it was run: as §1
# [17] = molecular target: Neu5Ac(a2-3)[GalNAc(b1-4)]Gal(b1-4)Glc
# How it was run: as §1
# [18] = molecular target: Neu5Ac(a2-3)[GalNAc(b1-4)]Gal(b1-4)GlcNAc
# How it was run: as §1
# [19] = molecular target: Neu5Ac(a2-3)[GalNAc(b1-4)]Gal(b1-4)GlcNAc(b1-3)GalNAc
# How it was run: as §1
# [20] = molecular target: Neu5Ac(a2-3)[Neu5Ac(a2-6)]GalNAc
# How it was run: as §1
# Neu5Ac(a2-6)Gal = molecular target: Neu5Ac(a2-6)Gal
# How it was run: as §1
# [21] = molecular target: Neu5Ac(a2-6)Gal(b1-3)GlcNAc(b1-3)[Gal(b1-4)GlcNAc(b1-6)]Gal(b1-4)Glc
# How it was run: as §1
# Neu5Ac(a2-6)Gal(b1-4)Glc = molecular target: Neu5Ac(a2-6)Gal(b1-4)Glc
# How it was run: as §1
# [22] = molecular target: Neu5Ac(a2-6)Gal(b1-4)GlcNAc
# How it was run: as §1
# [23] = molecular target: Neu5Ac(a2-6)Gal(b1-4)GlcNAc(b1-2)Man
# How it was run: as §1
# [24] = molecular target: Neu5Ac(a2-6)Gal(b1-4)GlcNAc(b1-2)Man(a1-3)Man(b1-4)GlcNAc(b1-4)GlcNAc
# How it was run: as §1
# [25] = molecular target: Neu5Ac(a2-6)Gal(b1-4)GlcNAc(b1-2)Man(a1-3)[Gal(b1-4)GlcNAc(b1-2)Man(a1-6)]Man(b1-4)GlcNAc(b1-4)GlcNAc
# How it was run: as §1
# [26] = molecular target: Neu5Ac(a2-6)Gal(b1-4)GlcNAc(b1-2)Man(a1-3)[GlcNAc(b1-2)Man(a1-6)]Man(b1-4)GlcNAc(b1-4)GlcNAc
# How it was run: as §1
# [27] = molecular target: Neu5Ac(a2-6)Gal(b1-4)GlcNAc(b1-2)Man(a1-3)[GlcNAc(b1-4)][Neu5Ac(a2-6)Gal(b1-4)GlcNAc(b1-2)Man(a1-6)]Man(b1-4)GlcNAc(b1-4)GlcNAc
# How it was run: as §1
# [28] = molecular target: Neu5Ac(a2-6)Gal(b1-4)GlcNAc(b1-2)Man(a1-3)[Man(a1-6)]Man(b1-4)GlcNAc(b1-4)GlcNAc
# How it was run: as §1
# [29] = molecular target: Neu5Ac(a2-6)Gal(b1-4)GlcNAc(b1-2)Man(a1-3)[Neu5Ac(a2-3)Gal(b1-4)GlcNAc(b1-2)Man(a1-6)]Man(b1-4)GlcNAc(b1-4)GlcNAc
# How it was run: as §1
# [30] = molecular target: Neu5Ac(a2-6)Gal(b1-4)GlcNAc(b1-2)Man(a1-3)[Neu5Ac(a2-6)Gal(b1-4)GlcNAc(b1-2)Man(a1-6)]Man(b1-4)GlcNAc(b1-4)GlcNAc
# How it was run: as §1
# [31] = molecular target: Neu5Ac(a2-6)Gal(b1-4)GlcNAc(b1-2)Man(a1-3)[Neu5Ac(a2-6)Gal(b1-4)GlcNAc(b1-2)Man(a1-6)]Man(b1-4)GlcNAc(b1-4)[Fuc(a1-6)]GlcNAc
# How it was run: as §1
# [32] = molecular target: Neu5Ac(a2-6)Gal(b1-4)GlcNAc(b1-2)Man(a1-6)Man(b1-4)GlcNAc(b1-4)GlcNAc
# How it was run: as §1
# [33] = molecular target: Neu5Ac(a2-6)Gal(b1-4)GlcNAc(b1-2)Man(a1-6)[Gal(b1-4)GlcNAc(b1-2)Man(a1-3)]Man(b1-4)GlcNAc(b1-4)GlcNAc
# How it was run: as §1
# [34] = molecular target: Neu5Ac(a2-6)Gal(b1-4)GlcNAc(b1-2)Man(a1-6)[GlcNAc(b1-2)Man(a1-3)]Man(b1-4)GlcNAc(b1-4)GlcNAc
# How it was run: as §1
# [35] = molecular target: Neu5Ac(a2-6)Gal(b1-4)GlcNAc(b1-2)Man(a1-6)[Man(a1-3)]Man(b1-4)GlcNAc(b1-4)GlcNAc
# How it was run: as §1
# [36] = molecular target: Neu5Ac(a2-6)Gal(b1-4)GlcNAc(b1-2)[Neu5Ac(a2-6)Gal(b1-4)GlcNAc(b1-4)]Man(a1-3)[GlcNAc(b1-4)][Neu5Ac(a2-6)Gal(b1-4)GlcNAc(b1-2)[Neu5Ac(a2-6)Gal(b1-4)GlcNAc(b1-6)]Man(a1-6)]Man(b1-4)GlcNAc(b1-4)GlcNAc
# How it was run: as §1
# [37] = molecular target: Neu5Ac(a2-6)Gal(b1-4)GlcNAc(b1-2)[Neu5Ac(a2-6)Gal(b1-4)GlcNAc(b1-4)]Man(a1-3)[GlcNAc(b1-4)][Neu5Ac(a2-6)Gal(b1-4)GlcNAc(b1-4)Man(a1-6)]Man(b1-4)GlcNAc(b1-4)GlcNAc
# How it was run: as §1
# [38] = molecular target: Neu5Ac(a2-6)Gal(b1-4)GlcNAc(b1-2)[Neu5Ac(a2-6)Gal(b1-4)GlcNAc(b1-6)]Man(a1-6)[Neu5Ac(a2-6)Gal(b1-4)GlcNAc(b1-2)Man(a1-3)][GlcNAc(b1-4)]Man(b1-4)GlcNAc(b1-4)GlcNAc
# How it was run: as §1
# [39] = molecular target: Neu5Ac(a2-6)Gal(b1-4)GlcNAc(b1-3)Gal(b1-3)GlcNAc
# How it was run: as §1
# [40] = molecular target: Neu5Ac(a2-6)Gal(b1-4)GlcNAc(b1-3)Gal(b1-4)GlcNAc
# How it was run: as §1
# [41] = molecular target: Neu5Ac(a2-6)Gal(b1-4)GlcNAc(b1-3)Gal(b1-4)GlcNAc(b1-2)Man(a1-3)[Neu5Ac(a2-6)Gal(b1-4)GlcNAc(b1-3)Gal(b1-4)GlcNAc(b1-2)Man(a1-6)]GalNAc
# How it was run: as §1
# [42] = molecular target: Neu5Ac(a2-6)Gal(b1-4)GlcNAc(b1-3)Gal(b1-4)GlcNAc(b1-3)Gal(b1-4)GlcNAc
# How it was run: as §1
binder,measurement,setting,value
B1,glycan array binding signal (z-score),[1],0.768
same,glycan array binding signal (z-score),[2],2.32
same,glycan array binding signal (z-score),[3],-0.888
same,glycan array binding signal (z-score),[4],-0.835
same,glycan array binding signal (z-score),[5],-0.815
same,glycan array binding signal (z-score),[6],0.681
same,glycan array binding signal (z-score),[7],-0.014
same,glycan array binding signal (z-score),[8],0.454
same,glycan array binding signal (z-score),[9],0.9
same,glycan array binding signal (z-score),[10],0.454
same,glycan array binding signal (z-score),[11],-0.654
same,glycan array binding signal (z-score),[12],-0.281
same,glycan array binding signal (z-score),[13],0.695
same,glycan array binding signal (z-score),[14],-0.797
same,glycan array binding signal (z-score),[15],-0.558
same,glycan array binding signal (z-score),Neu5Ac(a2-3)GalNAc,-0.756
same,glycan array binding signal (z-score),[16],0.222
same,glycan array binding signal (z-score),[17],-0.002
same,glycan array binding signal (z-score),[18],0.118
same,glycan array binding signal (z-score),[19],-0.972
same,glycan array binding signal (z-score),[20],3.69
same,glycan array binding signal (z-score),Neu5Ac(a2-6)Gal,0.728
same,glycan array binding signal (z-score),[21],0.302
same,glycan array binding signal (z-score),Neu5Ac(a2-6)Gal(b1-4)Glc,0.341
same,glycan array binding signal (z-score),[22],-0.226
same,glycan array binding signal (z-score),[23],-0.715
same,glycan array binding signal (z-score),[24],-0.437
same,glycan array binding signal (z-score),[25],-0.141
same,glycan array binding signal (z-score),[26],-0.438
same,glycan array binding signal (z-score),[27],-0.618
same,glycan array binding signal (z-score),[28],1.08
same,glycan array binding signal (z-score),[29],-0.085
same,glycan array binding signal (z-score),[30],-0.893
same,glycan array binding signal (z-score),[31],-0.548
same,glycan array binding signal (z-score),[32],-0.928
same,glycan array binding signal (z-score),[33],-0.563
same,glycan array binding signal (z-score),[34],-0.61
same,glycan array binding signal (z-score),[35],-0.497
same,glycan array binding signal (z-score),[36],1.04
same,glycan array binding signal (z-score),[37],0.462
same,glycan array binding signal (z-score),[38],-0.534
same,glycan array binding signal (z-score),[39],-0.233
same,glycan array binding signal (z-score),[40],-0.825
same,glycan array binding signal (z-score),[41],0.499
same,glycan array binding signal (z-score),[42],0.269

# Shown with tabs: part of the list above
binder	measurement	setting	value
B1	glycan array binding signal (z-score)	[10]	0.454
same	glycan array binding signal (z-score)	[11]	-0.654
same	glycan array binding signal (z-score)	[12]	-0.281
same	glycan array binding signal (z-score)	[13]	0.695
